This is an account of results in paper PMC4726734.

The test addresses T1, GA-binding protein alpha subunit (GABPα) (human (endogenous in HDF-TERT)) (UniProt Q06546).
T1 sequence: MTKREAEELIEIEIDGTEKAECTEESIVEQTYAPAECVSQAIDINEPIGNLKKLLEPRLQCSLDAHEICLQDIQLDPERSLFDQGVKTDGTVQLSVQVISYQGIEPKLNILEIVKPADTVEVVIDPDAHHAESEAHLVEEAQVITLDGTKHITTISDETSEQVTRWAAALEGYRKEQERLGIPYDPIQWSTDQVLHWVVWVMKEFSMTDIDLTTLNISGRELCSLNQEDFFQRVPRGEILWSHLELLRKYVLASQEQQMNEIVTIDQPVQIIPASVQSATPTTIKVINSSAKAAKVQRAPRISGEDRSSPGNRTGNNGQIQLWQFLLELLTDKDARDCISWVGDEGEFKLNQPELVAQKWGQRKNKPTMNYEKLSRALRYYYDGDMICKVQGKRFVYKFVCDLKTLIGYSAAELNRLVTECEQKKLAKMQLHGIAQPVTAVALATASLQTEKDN
Description: co-IP.

Results are given in words; binding and its absence hold for the method and conditions named. Binding seen in cells or lysates may run through a third protein. A result given as binding can be weak or reduced; the word gives no strength.

Turning to “GA-binding protein beta subunit (GABPβ) (human (endogenous in HDF-TERT))”, the binding entry is on record as “binds”.
